Experimental data published in patent publication US20250073355A1, “CD44-BINDING PEPTIDE REAGENTS AND METHODS” (THE REGENTS OF THE UNIVERSITY OF MICHIGAN, priority 2021, published 2025).

By UniProt entry, the sequences of proteins in these tests, tags left out. Residues count along the entry.
UniProt P16070, 21-742: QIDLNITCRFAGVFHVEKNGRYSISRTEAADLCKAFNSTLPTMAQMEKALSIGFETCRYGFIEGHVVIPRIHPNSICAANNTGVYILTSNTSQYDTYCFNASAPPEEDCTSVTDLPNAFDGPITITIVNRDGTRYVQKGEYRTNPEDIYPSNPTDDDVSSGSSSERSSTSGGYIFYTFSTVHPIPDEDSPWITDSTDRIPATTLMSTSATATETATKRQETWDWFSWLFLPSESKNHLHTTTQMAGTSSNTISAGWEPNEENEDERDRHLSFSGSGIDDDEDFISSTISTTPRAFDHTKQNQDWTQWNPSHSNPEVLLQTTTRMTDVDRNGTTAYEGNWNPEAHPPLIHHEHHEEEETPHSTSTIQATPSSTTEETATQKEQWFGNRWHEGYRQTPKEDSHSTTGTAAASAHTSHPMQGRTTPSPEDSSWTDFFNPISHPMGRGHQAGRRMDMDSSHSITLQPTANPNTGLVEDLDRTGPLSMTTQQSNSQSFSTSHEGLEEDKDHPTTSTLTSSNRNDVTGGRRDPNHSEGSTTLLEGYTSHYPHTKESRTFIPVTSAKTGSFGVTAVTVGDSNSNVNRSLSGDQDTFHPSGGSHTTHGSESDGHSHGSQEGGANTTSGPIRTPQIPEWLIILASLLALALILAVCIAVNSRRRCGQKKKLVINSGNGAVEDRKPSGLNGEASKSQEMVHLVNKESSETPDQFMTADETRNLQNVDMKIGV

Target: T1, CD44 (Homo sapiens, UniProt P16070)
T1 construct: endogenous in cells; host or cells: SK-Hep1 (human HCC cells)
Experiment: siRNA knockdown of CD44 in SK-Hep1 cells, confocal binding
Assay type: cell-based
Conditions: 4 μM peptide, 3 min; confocal microscopy
Protocol: CD44 expression in SK-Hep1 cells was knocked down using three different siRNAs, including 1) L-009999-00-0005, Dharmacon; 2) s2681, Thermo Fisher; and 3) 106160, Thermo Fisher. MISSION® siRNA Universal Negative Control (SIC001, Sigma) was used for control. Cells were transfected with Lipofectamine 2000 (11668027, Invitrogen) per manufacturer instructions, and then incubated with 4 μM of peptide for 3 min. A 1:3000 dilution of rabbit anti-CD44 antibody (EPR18668, Abcam) was used for positive control. CD44 expression was determined by Western blot within 72 hours.
Approximately 10^3 SK-Hep1 and Hep 3B cells were grown on cover glass in 24-well plate to ˜70% confluence. The cells were washed with PBS 1× and incubated with 4 μM of either target or control peptide for 3 min. The cells were then washed 3× in PBS, fixed with 4% paraformaldehyde (PFA) for 8 min, washed 3× with PBS then incubated with 2% BSA, 1% goat serum in PBS for 30 min. […] Confocal fluorescence images were collected on Leica SP8 confocal microscope using a 63× oil-immersion objective. Fluorescence intensities were quantified using custom MATLAB (Mathworks) software.

Question: With `CC(C)C[C@H](NC(=O)[C@H](Cc1ccc(O)cc1)NC(=O)[C@H](CO)NC(=O)[C@H](Cc1c[nH]c2ccccc12)NC(=O)CNC(=O)[C@H](CCCCN)NC(=O)[C@@H](N)Cc1c[nH]c2ccccc12)C(=O)N[C@@H](Cc1c[nH]c2ccccc12)C(=O)N[C@H](C(=O)N[C@@H](CCC(N)=O)C(=O)N[C@@H](CCC(N)=O)C(=O)N[C@@H](C)C(=O)NCC(=O)NCC(=O)NCC(=O)N[C@@H](CO)C(=O)N[C@@H](CSC1CC(=O)N(CCNC(=O)CCCCCN2C(=CC=C3CCCC(C=CC4=[N+](CCCCS(=O)(=O)[O-])c5ccc(S(=O)(=O)O)cc5C4(C)C)=C3Oc3ccc(S(=O)(=O)O)cc3)C(C)(C)c3cc(S(=O)(=O)O)ccc32)C1=O)C(N)=O)[C@@H](C)O` (stereo partly shown) [WKG*-IRDye800] as the molecule, how does the “binding to the surface of SK-Hep1 cells transfected with siCL (control)” value read?
Answer: Its value is “strong binding”.
